Source: PubChem BioAssay AID652259 (Drosophila RNAi Screening Center, 2013)

- Assay: 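Knock-downs that push a Wingless-driven reporter up or down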 (primary screen)
- Cell system: Drosophila clone 8 imaginal disc epithelial cells
- Reagents: long dsRNA against Drosophila genes
- Challenge: pathway stimulated by co-transfected Wingless expression plasmid
- Measurement: 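Firefly luciferase from a tcf-site Wingless reporter, measured alongside co-transfected Renilla luciferase that tracks transfection; pathway stimulated by a Wingless plasmid; the firefly-to-Renilla ratio is not deposited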
- Direction: firefly reporter light: higher = more Wg reporter light, before normalisation; Renilla control light: higher = more transfected or surviving cells
- Call rule: 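Strong candidates differ from their plate mean by at least two out of four per-plate statistical tests; weak candidates meet just one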
- Meaning of the calls: active = candidate regulator (raises or lowers reporter); inactive = not a candidate
The screen tested about 22,000 reagents; shown is a random part of those with a known target gene and a result. Over the whole deposit, 233 (1.1%) were called active. 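Light values are raw, unnormalised plate reads; the ratio scores behind the reporter calls were not deposited.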 Unmarked entries are inactive. Names joined by + are all predicted targets of the reagent. Not given: the amount of reagent, the time to read-out, the dose of the treatment.

gene | amplicon | reporter change call, replicate 1 | firefly reporter light, replicate 1 | firefly reporter light, replicate 2 | Renilla control light, replicate 1 | Renilla control light, replicate 2
CG16739 | DRSC06621 | – | 6724 | – | 2267 | –
Irbp | DRSC17007 | – | 13911 | – | 3744 | –
CG2906 | DRSC06841 | – | 1623 | 6528 | 672 | 2065
ca | DRSC15305 | – | 3168 | 7189 | 1336 | 2269
ca | DRSC15306 | – | 9286 | – | 2513 | –
ca | DRSC16314 | – | 7491 | – | 2728 | –
CG1701 | DRSC06641 | – | 2009 | 4781 | 757 | 1808
CkIIalpha-i3 | DRSC08651 | – | 14712 | – | 4532 | –
CG32579 | DRSC19872 | – | 21056 | – | 9712 | –
CG13319 | DRSC06356 | – | 5282 | – | 1172 | –
Or98a | DRSC16774 | – | 5731 | – | 2384 | –
CG34148 + P5CDh2 | DRSC13519 | – | 3210 | – | 1632 | –
Dap160 | DRSC01834 | – | 13177 | – | 12681 | –
Dap160 | DRSC03313 | – | 10349 | – | 3121 | –
CG14866 | DRSC14989 | – | 19572 | – | 3016 | –
psq | DRSC07668 | – | 6652 | – | 699 | –
CG1602 | DRSC06601 | – | 4404 | 5798 | 853 | 2272
CG5757 | DRSC06951 | – | 18347 | – | 6035 | –
CG13996 | DRSC02328 | – | 2513 | 6905 | 736 | 2485
CG6271 | DRSC16006 | – | 3821 | 8594 | 928 | 2080
CG3397 | DRSC15487 | – | 6139 | – | 2896 | –
Nepl20 | DRSC14878 | – | 9968 | – | 5223 | –
CG43092 | DRSC13572 | – | 1882 | – | 819 | –
CG11380 | DRSC18632 | Wg reporter activity raised (active) | 22215 | – | 5931 | –
CG14327 | DRSC14806 | – | 18456 | – | 5267 | –
MED6 | DRSC16500 | – | 9891 | – | 2181 | –
CG13606 | DRSC14609 | – | 16701 | – | 18102 | –
Rab4 | DRSC07524 | – | 10817 | – | 2547 | –
asp | DRSC16903 | – | 3344 | 6214 | 1227 | 1819
Gr22f | DRSC00076 | – | 28337 | – | 12274 | –
Cpr64Aa | DRSC08460 | – | 9670 | – | 2569 | –
Or88a | DRSC16770 | – | 12304 | – | 3619 | –
CG9525 | DRSC03249 | – | 3101 | 6491 | 832 | 3453
CG34124 | DRSC00849 | – | 29017 | – | 11376 | –
mth | DRSC08725 | – | 19004 | – | 5280 | –
CG4991 | DRSC19928 | – | 2460 | 5424 | 896 | 2497
CG7912 | DRSC16343 | – | 7200 | – | 3190 | –
Sobp | DRSC07312 | – | 16539 | – | 2214 | –
Fbxl7 | DRSC15553 | – | 22132 | – | 5292 | –
fusl | DRSC02351 | – | 5856 | – | 2886 | –
CG32121 | DRSC09265 | – | 5108 | – | 1191 | –
phtf | DRSC05023 | – | 13888 | – | 4128 | –
CG32085 | DRSC10138 | – | 8656 | – | 3046 | –
CG32085 | DRSC10139 | – | 9909 | – | 4005 | –
CG32085 | DRSC10576 | – | 4544 | – | 2528 | –
alpha-Cat | DRSC11917 | – | 13018 | – | 3596 | –
Gpat4 | DRSC04345 | – | 14869 | – | 4528 | –
CG6873 | DRSC20014 | – | 21769 | – | 10840 | –
cGlr2 | DRSC04017 | – | 21568 | – | 9224 | –
aqz | DRSC16570 | – | 28032 | – | 5079 | –
CG15093 | DRSC06522 | – | 20032 | – | 6073 | –
CG3907 | DRSC04432 | – | 2304 | 6219 | 330 | 2467
CG2694 | DRSC18470 | – | 3805 | 8365 | 1448 | 2658
His2B:CG33894 + His2B:CG33872 + His2B:CG33902 + 20 more | DRSC21265 | – | 17531 | – | 193 | –
CG13654 | DRSC14654 | – | 16210 | – | 13778 | –
Cyp303a1 | DRSC03300 | – | 2019 | 7026 | 944 | 2544
CG8617 | DRSC07223 | – | 5072 | – | 1435 | –
par-1 | DRSC05792 | Wg reporter activity raised (active) | 18185 | – | 6032 | –
par-1 | DRSC06098 | – | 7108 | – | 2371 | –
par-1 | DRSC06616 | – | 14576 | – | 4599 | –
par-1 | DRSC07660 | – | 6844 | – | 2360 | –
par-1 | DRSC07661 | – | 5338 | – | 1670 | –
CG7506 | DRSC10860 | – | 6893 | – | 2235 | –
Obp83cd | DRSC12267 | – | 16108 | – | 3605 | –
qkr54B | DRSC07670 | – | 6080 | – | 2257 | –
Dgkepsilon | DRSC07399 | – | 9000 | – | 3195 | –
CG32639 | DRSC18972 | – | 3489 | – | 379 | –
SCCRO3 | DRSC06359 | Wg reporter activity lowered | 4251 | – | 1040 | –
zf30C | DRSC03641 | – | 11248 | – | 3350 | –
CG33012 | DRSC06287 | – | 4154 | – | 2101 | –
CG33012 | DRSC06288 | – | 8017 | – | 4011 | –
Hydr2 | DRSC00607 | – | 10373 | – | 4576 | –
dpr10 | DRSC09015 | – | 4268 | – | 1616 | –
dpr10 | DRSC09018 | – | 4253 | – | 2256 | –
dpr10 | DRSC10159 | – | 7878 | – | 2709 | –
dpr10 | DRSC10160 | – | 5282 | – | 2294 | –

8 entries from above, set out differently:
gene	amplicon	reporter change call, replicate 1	firefly reporter light, replicate 1	firefly reporter light, replicate 2	Renilla control light, replicate 1	Renilla control light, replicate 2
CG2906	DRSC06841		1623	6528	672	2065
ca	DRSC15305		3168	7189	1336	2269
ca	DRSC15306		9286		2513	
ca	DRSC16314		7491		2728	
CG1701	DRSC06641		2009	4781	757	1808
CkIIalpha-i3	DRSC08651		14712		4532	
CG32579	DRSC19872		21056		9712	
CG13319	DRSC06356		5282		1172	
